## Primary screen of a compound library

Results are given as percent effect.
The controls that fix the scale are not given in the record; negative values are as filed.
The compounds are a random part of those screened.

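Assay of Toxoplasma gondii numbers, read through their beta-galactosidase reporter with a colour substrate. Compounds at 10 µM. The record gives no direction; the compounds picked for IC50 retests had high values, so higher reads as fewer parasites. About 67,000 compounds were tested under these conditions; 0.38% (about 260) showed 50% or more at least once.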

| Compound | effect |
|---|---|
| `COc1ccc(C(=O)C2CCCN(CCCn3cccn3)C2)c(OC)c1` (stereo not drawn) | 1.777 |
| `CC(C)CN1CCC2(C1)CN(c1ncccn1)C2.O=C(O)C(F)(F)F` | -0.721 |
| `CN(Cc1ccc(Cl)c(F)c1)C(=O)CCc1ccncc1` | 5.092 |
| `COCc1noc(-c2ccc(N(C)Cc3ncccc3C)nc2)n1` | 3.163 |
| `CC(C)=CCn1ncc(N2CCOCC2)cc1=O` | -5.406 |
| `CC(=O)c1ccc(-c2cnn(CC(=O)Nc3cc(C)nn3C)c2)nc1` | -0.3199 |
| `COc1ncccc1CNCc1c(C)nn(C)c1N1CCOCC1` | -19.19 |
| `O=C(O)C(F)(F)F.[H][C@@]12CCN(c3nncs3)C[C@]1([H])O[C@@H](C(=O)NCC1CCOCC1)C2` | 28.82 |
| `COCCCNC(=O)Nc1ncc(-c2cccc(OC)c2)n1CCOC` | 6.54 |
| `COc1cc(N2CC[C@H](O)[C@@H]2Cc2cccnc2)ncn1` | -9.706 |
| `N#CCCN(CCC#N)Cc1ccc(Br)c2cccnc12` | 11.15 |
| `COc1cc2nc(NCc3scnc3C)nc(N)c2cc1OC` | 41 |
| `COCC1COCCC12CCN(C(=O)CC1=CCCCC1)CC2` (stereo not drawn) | -26.27 |
| `CCn1cnnc1CNC(=O)N1CCC(C(=O)NC)CC1` | 4.132 |
| `COc1ccc(S(=O)(=O)N2CCC(OCc3ccccn3)C2)cc1Br` (stereo not drawn) | 0.5708 |
| `CCOC(=O)CNC(=O)c1cccnc1Oc1ccc(Cl)cc1` | 2.429 |
| `COCc1c(C(=O)NC2CCCC2)nnn1-c1ccc(C)cc1` | -4.019 |
| `CS(=O)(=O)NC1CCN(Cc2coc(-c3ccccc3)n2)CC1` | -42.28 |
| `c1cnc(N2CCOCC3(CCN(c4cnccn4)CC3)C2)nc1` | 0.03446 |
| `CC(=O)Nc1ccc(CNC(=O)CNCc2nnc(C)o2)cc1` | 1.803 |
| `Cc1ncc(CN2CCCC(O)(c3ccc(F)cc3)CC2)n1C.O=C(O)CC(O)(CC(=O)O)C(=O)O` (stereo not drawn) | 7.786 |
| `Cn1cc(CN2CCCN(C(=O)c3ccccn3)CC2)cn1` | -14.87 |
| `Cc1ccc(F)cc1C(=O)N1C[C@@H](CN2CCOCC2)[C@@H](CO)C1` | -1.287 |
| `Cc1ccc(CC(=O)N2CCN(c3nccs3)CC2)s1` | 29.47 |
| `CC(=O)N1CCN(C(=O)NCCCN(C)S(C)(=O)=O)CC1` | 0.1193 |
| `Cc1ccc2cc(CNCCN3CCCC3)c(=O)[nH]c2c1` | 8.512 |
| `NC(=O)C1CCN(CCCNC(=O)Nc2nncs2)CC1` | 24.05 |
| `Cc1occc1C(=O)N1CCC2(CCN(Cc3nccs3)C2)CC1.O=C(O)C(F)(F)F` | 5.584 |
| `Cc1ccc(-n2cc(CN3CCOCC3)c(-c3cccc(C)c3)n2)cc1` | -0.1897 |
| `O=C(O)C(F)(F)F.[H][C@@]12CCN(c3ccc(C)nn3)C[C@]1(C(=O)NC(C)C)CCO2` | 3.108 |
| `CO[C@H]1CN(c2ccccc2)S(=O)(=O)[C@@]12CCN(Cc1ccccc1)C2` | -14.26 |
| `Cc1ccc(N2CCC(NCc3cnc(C4CCC4)s3)CC2)nc1` | 3.499 |
| `COc1ccc(Nc2c[nH]c(=O)[nH]c2=O)cc1` | 2.121 |
| `COc1ccc(-c2cc(C3(O)CCCC3)on2)cc1` | -6.991 |
| `COc1cc(C(=O)N2CC(Oc3ccccc3Cl)C2)ccn1` | -1.641 |
| `CC(C)c1noc(CCC(=O)NC(C)c2nnc3n2CCC3)n1` (stereo not drawn) | -5.739 |
| `c1cc(-c2c[nH]c([C@@H]3COCCN3Cc3csnn3)n2)ccn1` | -4.983 |
| `CCNc1cc2c(nn1)CCN(C(=O)c1nccnc1N)C2` | -4.161 |
| `CC(C)c1nn(C)c(N2CCOCC2)c1CNCCC(=O)N(C)C` | -11.42 |
| `Cc1ccc2oc(C(=O)N3CCCC(n4ccnc4C)C3)cc2n1` (stereo not drawn) | 1.174 |
| `Cn1cc(C2CCCN2C(=O)c2ccc(Br)o2)cn1` (stereo not drawn) | -1.193 |
| `Cc1ccc2cccc(S(=O)(=O)N(C)C3CCCN(C)C3)c2n1` (stereo not drawn) | 14.18 |
| `Cc1cccnc1CC(C)N(C)C(=O)c1cccs1` (stereo not drawn) | 1.561 |
| `CNc1ccnc(NCCC(=O)Nc2ccccc2C)n1` | -34.97 |
| `CCn1ccnc1CN1CCCN(C(=O)c2cc(C)nn2CC)CC1` | -0.1221 |
| `CC(C)(C)CN1CCOC[C@H]1c1nc(-c2cccc(F)c2)c[nH]1` | 14.03 |
| `O=C(O)C(F)(F)F.[H][C@@]12CN(CC)C[C@]1([H])[C@H](OC)CCN2S(=O)(=O)c1ccccc1` | -21.06 |
| `CNC(=O)c1ccc(-n2c(COCC(=O)O)nc3c(C)cccc32)o1` | -0.06378 |
| `Cc1nc(C(Cc2ccsc2)NC(=O)CCN2CCOCC2)sc1C` (stereo not drawn) | 13.11 |
| `Cc1cccnc1NC(=O)CSc1ccc2c(c1)OCCO2` | 4.362 |
| `Cc1cc(C(=O)NCc2c(C)nn(C)c2C)nc(N2CCOCC2)n1` | 20.1 |
| `COCCOCCNc1cncc(Br)c1` | 2.363 |
| `Cc1cc(C)c(CNC(=O)NCC(O)c2ccccc2F)c(=O)[nH]1` (stereo not drawn) | -0.9032 |
| `COc1cccc(CNC(=O)c2nc3c(o2)CN(C(=O)N(C)C)C3)c1` | 5.585 |
| `Cc1ccc(OCC2CCCN(CC3CCOCC3)C2)cc1` (stereo not drawn) | -5.775 |
| `CC(=O)N1CCCC1c1nc(C)no1` (stereo not drawn) | 7.843 |
| `Cc1nc(C)n(CC2CCCN2CC(=O)NCc2ccco2)n1` (stereo not drawn) | -3.394 |

Some entries from above, unchanged:

Compound	effect
Cc1nc(C(Cc2ccsc2)NC(=O)CCN2CCOCC2)sc1C (stereo not drawn)	13.11
Cc1ccc(-n2cc(CN3CCOCC3)c(-c3cccc(C)c3)n2)cc1	-0.1897
CC(=O)Nc1ccc(CNC(=O)CNCc2nnc(C)o2)cc1	1.803
COCCOCCNc1cncc(Br)c1	2.363

The values are deposited in ChEMBL (CHEMBL3988442, “University of Dundee, Small-Polar-MMV Screening Library” (2021)).